A short description of experiment [1]: PubChem AID 1586. The following applies: yeast two-hybrid polyglutamine protein interaction, reporter readout; measured here: averaged growth delta OD.
Experiment [2] is described as follows: enhancers of SMN2 over SMN1 splicing, cell-based, SMN2/SMN1 luciferase reporters (AID 1598). The following applies: SMN2 vs SMN1 luciferase splicing reporter cells, at 10 µM; SMN1 luciferase ratio: measured here: SMN1 luciferase reporter average; SMN2 luciferase ratio: measured here: SMN2 luciferase reporter average, stronger effect = higher value.
Experiment [3] is described as follows: protection against mutant huntingtin cytotoxicity, PC12 cells, LDH release (AID 1610). To be noted: PC12 mutant huntingtin toxicity, final LDH at 4 uM, stronger effect = lower value. (In general: Release of lactate dehydrogenase indicates damage to the cell membrane.)

Each structure is given as a SMILES string. This is one part of the list. These are further read-outs of the screen, such as a control signal, another cell line or another target. No call is given for them. For some assays here: Most of these compounds were active or inconclusive in the main read-out, so they are no random draw.

As for `CN(C)CCOC(c1ccc(Cl)cc1)c1ccccn1` (stereo unspecified), the signal change (36 h minus 0 h) in experiment [1] is 0.104. Also, in experiment [2], the SMN1 luciferase ratio was found to be 0.9 and the SMN2 luciferase ratio was determined as 1.14.

Turning to `CCCCC(=O)OC1(C(=O)CO)C(C)CC2C3CCC4=CC(=O)C=CC4(C)[C@@]3(F)[C@@H](O)CC21C` (stereo partly specified), the signal change (36 h minus 0 h) in experiment [1] is -0.102. Also, in experiment [2], the SMN1 luciferase ratio stood at 0.95 and the SMN2 luciferase ratio is 1.07.

Turning to `NC(=NCc1ccccc1)NC(=O)c1nc(Cl)c(N)nc1N`, in experiment [1], the signal change (36 h minus 0 h) was determined as 0.577. In addition, in experiment [2], the SMN1 luciferase ratio is 0.99 and the SMN2 luciferase ratio amounted to 1.11.

In experiment [1], `CC(C)C(=O)Nc1ccc([N+](=O)[O-])c(C(F)(F)F)c1` came in with a signal change (36 h minus 0 h) of 0.142. Besides, in experiment [2], the SMN1 luciferase ratio is 0.68 and the SMN2 luciferase ratio amounted to 0.69.

The molecule `CN[C@@H]1[C@H](OC2[C@H](O[C@H]3[C@H](O)[C@@H](O)[C@H](N=C(N)N)[C@@H](O)[C@@H]3N=C(N)N)O[C@@H](C)[C@]2(O)C=O)O[C@@H](CO)[C@H](O)[C@H]1O` (stereo partly specified) gave a signal change (36 h minus 0 h) in experiment [1] of 0.187. In experiment [2], the SMN1 luciferase ratio turned out to be 0.82 and the SMN2 luciferase ratio was determined as 0.84.

The molecule `OCCN1CCN(CCCN2c3ccccc3Sc3ccc(Cl)cc32)CC1` came in with a signal change (36 h minus 0 h) in experiment [1] of 0.0651. In experiment [2], the SMN1 luciferase ratio came to 0.94 and the SMN2 luciferase ratio worked out at 0.97.

For the molecule `CC1(C)O[C@@H]2CC3C4C[C@H](F)C5=CC(=O)C=CC5(C)C4C(O)CC3(C)[C@]2(C(=O)CO)O1` (stereo partly specified), the signal change (36 h minus 0 h) in experiment [1] was 0.166. Also, in experiment [2], the SMN1 luciferase ratio was 0.88 and the SMN2 luciferase ratio is 0.83.

In experiment [1], `O=C(c1ccccc1)c1ccc2n1CCC2C(=O)O` (stereo unspecified) showed a signal change (36 h minus 0 h) of 0.0568. Besides, in experiment [2], the SMN1 luciferase ratio worked out at 0.59 and the SMN2 luciferase ratio was 0.7.

In the case of `CC(=O)N1CCN(c2ccc(OCC3CO[C@](Cn4ccnc4)(c4ccc(Cl)cc4Cl)O3)cc2)CC1` (stereo partly specified), the signal change (36 h minus 0 h) in experiment [1] is -0.0441. Moreover, in experiment [2], the SMN1 luciferase ratio came out at 1 and the SMN2 luciferase ratio came to 0.93. For the same molecule, in experiment [3], the normalised LDH release came to 0.819.

As for `OC(CCN1CCCCC1)(c1ccccc1)c1ccccc1`, in experiment [1], the signal change (36 h minus 0 h) amounted to 0.304. In addition, in experiment [2], the SMN1 luciferase ratio came out at 0.94 and the SMN2 luciferase ratio stood at 0.94. The molecule further came in with a normalised LDH release in experiment [3] of 1.08.

In experiment [1], `Cc1c(C(N)=O)cc([N+](=O)[O-])cc1[N+](=O)[O-]` displayed a signal change (36 h minus 0 h) of 0.269. Further, in experiment [2], the SMN1 luciferase ratio was determined as 0.93 and the SMN2 luciferase ratio came out at 0.9. This molecule also returned a normalised LDH release in experiment [3] of 0.677.

As to `CC1(C)S[C@@H]2C(N3C(=O)[C@@H](c4ccccc4)NC3(C)C)C(=O)N2[C@H]1C(=O)O` (stereo partly specified), the signal change (36 h minus 0 h) in experiment [1] is 0.125. For the same molecule, in experiment [2], the SMN1 luciferase ratio is 0.86 and the SMN2 luciferase ratio was found to be 0.77. For the same molecule, the normalised LDH release in experiment [3] came out at 0.496.

Turning to `CC(=O)OCC(=O)[C@@]1(O)CCC2C3CCC4=CC(=O)C=CC4(C)C3[C@@H](O)C[C@@]21C` (stereo partly specified), in experiment [1], the signal change (36 h minus 0 h) was 0.0722. For the same molecule, in experiment [2], the SMN1 luciferase ratio came to 0.91 and the SMN2 luciferase ratio amounted to 0.88. In experiment [3], this molecule yielded a normalised LDH release of 0.295.

In experiment [1], `COc1cc(NS(=O)(=O)c2ccc(N)cc2)nc(OC)n1` registered a signal change (36 h minus 0 h) of 0.155. In experiment [2], the SMN1 luciferase ratio was found to be 0.76 and the SMN2 luciferase ratio was 0.93. This molecule also came in with a normalised LDH release in experiment [3] of 0.894.

In the case of `CC(=O)O[C@]1(C(C)=O)CCC2C3C[C@H](C)C4=CC(=O)CC[C@]4(C)C3CC[C@@]21C` (stereo partly specified), in experiment [1], the signal change (36 h minus 0 h) was determined as 0.13. Besides, in experiment [2], the SMN1 luciferase ratio worked out at 0.97 and the SMN2 luciferase ratio came out at 0.92. For the same molecule, in experiment [3], the normalised LDH release was found to be 0.796.

For `COc1c2ccoc2cc2oc(=O)ccc12`, in experiment [1], the signal change (36 h minus 0 h) is 0.148. In experiment [2], the SMN1 luciferase ratio came out at 0.85 and the SMN2 luciferase ratio was found to be 0.94. The same molecule registered a normalised LDH release in experiment [3] of 0.847.

`COC1=CC(=O)C[C@@H](C)[C@]12Oc1c(Cl)c(OC)cc(OC)c1C2=O` yielded a signal change (36 h minus 0 h) in experiment [1] of 0.0679. Moreover, in experiment [2], the SMN1 luciferase ratio was found to be 0.94 and the SMN2 luciferase ratio amounted to 0.9. This molecule had a normalised LDH release in experiment [3] of 0.718.

`CCCCCC(C)N` (stereo unspecified) showed a signal change (36 h minus 0 h) in experiment [1] of 0.246. In addition, in experiment [2], the SMN1 luciferase ratio came to 0.81 and the SMN2 luciferase ratio was determined as 0.88. The same molecule showed a normalised LDH release in experiment [3] of 0.912.

With `C1CCN2C[C@H]3C[C@H](CN4CCCC[C@@H]34)[C@H]2C1`, the signal change (36 h minus 0 h) in experiment [1] is 0.197. Besides, in experiment [2], the SMN1 luciferase ratio is 0.93 and the SMN2 luciferase ratio worked out at 0.84. Besides, the normalised LDH release in experiment [3] came to 0.929.

In turn, `O=C(CCCN1CCC(O)(c2ccc(Cl)cc2)CC1)c1ccc(F)cc1` yielded a signal change (36 h minus 0 h) in experiment [1] of 0.11. In addition, in experiment [2], the SMN1 luciferase ratio amounted to 0.88 and the SMN2 luciferase ratio was found to be 0.88. Besides, in experiment [3], the normalised LDH release came out at 0.839.

Molecule `CC(CN(C)C)CN1c2ccccc2CCc2ccccc21` (stereo unspecified) displayed a signal change (36 h minus 0 h) in experiment [1] of 0.199. In experiment [2], the SMN1 luciferase ratio was 0.77 and the SMN2 luciferase ratio stood at 0.84. In experiment [3], the normalised LDH release stood at 0.66.

The molecule `CCCCC1C(=O)N(c2ccccc2)N(c2ccc(O)cc2)C1=O` (stereo unspecified) returned a signal change (36 h minus 0 h) in experiment [1] of 0.0612. Besides, in experiment [2], the SMN1 luciferase ratio worked out at 0.96 and the SMN2 luciferase ratio came to 1.07. Moreover, the normalised LDH release in experiment [3] stood at 0.599.

In turn, `CCCCOC(=O)c1ccc(N)cc1` registered a signal change (36 h minus 0 h) in experiment [1] of 0.049. For the same molecule, in experiment [2], the SMN1 luciferase ratio stood at 1.02 and the SMN2 luciferase ratio was found to be 1.01. This molecule registered a normalised LDH release in experiment [3] of 0.8.

Regarding `O=C(O)c1cc([N+](=O)[O-])ccc1NCCCc1ccccc1`, in experiment [1], the signal change (36 h minus 0 h) was -0.0205. Besides, in experiment [2], the SMN1 luciferase ratio stood at 0.98 and the SMN2 luciferase ratio came to 1.03. In experiment [3], the normalised LDH release was found to be 0.597.

In experiment [1], `Cn1c(=O)[nH]c2ncn(C)c2c1=O` gave a signal change (36 h minus 0 h) of 0.177. In experiment [2], the SMN1 luciferase ratio worked out at 0.86 and the SMN2 luciferase ratio is 0.85. The molecule also displayed a normalised LDH release in experiment [3] of 0.601.

`CC[C@]12CCCN3CCc4c(n(c5ccccc45)[C@](O)(C(=O)OC)C1)[C@@H]32` returned a signal change (36 h minus 0 h) in experiment [1] of 0.184. Also, in experiment [2], the SMN1 luciferase ratio amounted to 0.9 and the SMN2 luciferase ratio stood at 0.82. For the same molecule, in experiment [3], the normalised LDH release came to 1.08.

With `C=C1c2c(Cl)ccc(O)c2C(O)=C2C(=O)[C@]3(O)C(O)=C(C(N)=O)C(=O)[C@@H](N(C)C)[C@@H]3[C@@H](O)[C@H]12`, the signal change (36 h minus 0 h) in experiment [1] stood at 0.14. In experiment [2], the SMN1 luciferase ratio came to 0.89 and the SMN2 luciferase ratio was determined as 0.91. Also, in experiment [3], the normalised LDH release is 0.629.

In turn, `CC1(C)O[C@@H]2C[C@H]3C4C[C@H](F)C5=CC(=O)C=CC5(C)[C@@]4(F)[C@@H](O)C[C@]3(C)[C@]2(C(=O)CO)O1` (stereo partly specified) had a signal change (36 h minus 0 h) in experiment [1] of 0.171. In addition, in experiment [2], the SMN1 luciferase ratio was 0.87 and the SMN2 luciferase ratio is 0.85. The normalised LDH release in experiment [3] was found to be 0.603.

For `CCCC(C(=O)OCCN(CC)CC)(c1ccccc1)c1ccccc1`, the signal change (36 h minus 0 h) in experiment [1] is 0.118. In experiment [2], the SMN1 luciferase ratio was found to be 0.86 and the SMN2 luciferase ratio was 0.89. This molecule had a normalised LDH release in experiment [3] of 1.1.

In experiment [1], `CCCC(=O)O[C@]1(C(=O)CO)CCC2[C@@H]3CCC4=CC(=O)CC[C@]4(C)C3[C@@H](O)C[C@@]21C` (stereo partly specified) came in with a signal change (36 h minus 0 h) of 0.439. In experiment [2], the SMN1 luciferase ratio was 0.81 and the SMN2 luciferase ratio worked out at 0.84. The normalised LDH release in experiment [3] came out at 0.6.

The molecule `CC(=O)OCC(=O)[C@@]1(O)CC[C@H]2C3CCC4=CC(=O)CCC4(C)[C@@]3(F)[C@@H](O)CC21C` (stereo partly specified) displayed a signal change (36 h minus 0 h) in experiment [1] of 0.0992. Further, in experiment [2], the SMN1 luciferase ratio stood at 0.91 and the SMN2 luciferase ratio amounted to 0.92. Further, in experiment [3], the normalised LDH release was found to be 0.341.

(Values after PubChem BioAssay.)
